Measured values published in publication PMC11124926.
No constants are given. Whether binding was seen depends on the method and setting. For some assays here: In cells and extracts the contact can be indirect. Some entries that bind do so weakly or less than the wild type. For some assays here: Sequences can lack the tags named with a protein.

What was measured:
[1] = target: T1, Slender rice 1 (SLR1), bait of the yeast two-hybrid screening (rice) (UniProt Q7G7J6); test: two-hybrid; yeast two-hybrid screening with SLR1 as a bait
T1 sequence: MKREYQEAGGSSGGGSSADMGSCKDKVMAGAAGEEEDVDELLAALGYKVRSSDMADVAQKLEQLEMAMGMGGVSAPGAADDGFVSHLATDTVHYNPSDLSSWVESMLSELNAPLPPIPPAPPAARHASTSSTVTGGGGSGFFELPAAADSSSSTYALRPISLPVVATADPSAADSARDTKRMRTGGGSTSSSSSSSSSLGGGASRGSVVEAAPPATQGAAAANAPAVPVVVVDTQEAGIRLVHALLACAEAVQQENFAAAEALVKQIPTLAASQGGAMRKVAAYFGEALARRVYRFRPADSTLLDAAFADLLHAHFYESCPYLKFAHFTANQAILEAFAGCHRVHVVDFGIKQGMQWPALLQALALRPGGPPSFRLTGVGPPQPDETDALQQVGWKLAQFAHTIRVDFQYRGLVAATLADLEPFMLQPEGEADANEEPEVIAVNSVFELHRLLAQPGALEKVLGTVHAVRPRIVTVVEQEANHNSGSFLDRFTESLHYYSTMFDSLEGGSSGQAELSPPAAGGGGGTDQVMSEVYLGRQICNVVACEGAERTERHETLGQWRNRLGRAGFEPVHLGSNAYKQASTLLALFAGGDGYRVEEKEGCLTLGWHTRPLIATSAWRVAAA

SLR1-Myc (rice) = target: T2, SLR1-Myc (rice) (UniProt Q7G7J6); test: co-IP; CIPK31-GFP + SLR1-Myc coexpressed in Nicotiana benthamiana leaves; total protein immunoprecipitated with anti-Myc (agarose beads, 3 h); blots with anti-GFP and anti-Myc; extraction buffer 150 mM NaCl, 0.1% NP40
T2 sequence: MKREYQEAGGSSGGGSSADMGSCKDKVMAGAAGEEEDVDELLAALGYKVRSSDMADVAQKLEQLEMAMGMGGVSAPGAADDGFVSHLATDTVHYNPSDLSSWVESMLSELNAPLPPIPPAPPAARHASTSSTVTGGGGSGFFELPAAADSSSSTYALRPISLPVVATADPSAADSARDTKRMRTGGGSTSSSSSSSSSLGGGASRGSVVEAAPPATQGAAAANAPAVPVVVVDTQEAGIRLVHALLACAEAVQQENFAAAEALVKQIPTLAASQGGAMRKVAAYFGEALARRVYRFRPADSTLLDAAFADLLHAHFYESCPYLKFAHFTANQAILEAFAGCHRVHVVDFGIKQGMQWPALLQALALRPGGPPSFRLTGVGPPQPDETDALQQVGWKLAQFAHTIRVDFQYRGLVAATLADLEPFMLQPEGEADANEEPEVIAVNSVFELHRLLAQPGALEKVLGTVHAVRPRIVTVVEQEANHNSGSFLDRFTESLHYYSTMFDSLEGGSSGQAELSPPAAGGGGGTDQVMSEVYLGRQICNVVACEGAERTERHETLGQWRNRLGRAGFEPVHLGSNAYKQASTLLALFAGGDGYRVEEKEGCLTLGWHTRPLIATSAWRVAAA

Binder | binding [1] | binding (SLR1-Myc (rice))
Calcineurin B-like-interacting protein kinase 31 (CIPK31), interactor found in the SLR1 yeast two-hybrid screening (protein, UniProt Q6X4A2 1-449) MYRAKRAALSPKVKRRVGKYELGRTIGEGTFAKVRFAKNTENDEPVAIKILDKEKVQKHRLVEQIRREICTMKLVKHPNVVRLFEVMGSKARIFIVLEYVTGGELFEIIATNGRLKEEEARKYFQQLINAVDYCHSRGVYHRDLKLENLLLDASGNLKVSDFGLSALTEQVKADGLLHTTCGTPNYVAPEVIEDRGYDGAAADIWSCGVILYVLLAGFLPFEDDNIIALYKKISEAQFTCPSWFSTGAKKLITRILDPNPTTRITISQILEDPWFKKGYKPPVFDEKYETSFDDVDAAFGDSEDRHVKEETEDQPTSMNAFELISLNQALNLDNLFEAKKEYKRETRFTSQCPPKEIITKIEEAAKPLGFDIQKKNYKMRMENLKAGRKGNLNVATEVFQVAPSLHVVELKKAKGDTLEFQKFYRTLSTQLKDVVWKCDGEVEGNGAAA | binds | –
CIPK31-GFP (protein, UniProt Q6X4A2 1-449) MYRAKRAALSPKVKRRVGKYELGRTIGEGTFAKVRFAKNTENDEPVAIKILDKEKVQKHRLVEQIRREICTMKLVKHPNVVRLFEVMGSKARIFIVLEYVTGGELFEIIATNGRLKEEEARKYFQQLINAVDYCHSRGVYHRDLKLENLLLDASGNLKVSDFGLSALTEQVKADGLLHTTCGTPNYVAPEVIEDRGYDGAAADIWSCGVILYVLLAGFLPFEDDNIIALYKKISEAQFTCPSWFSTGAKKLITRILDPNPTTRITISQILEDPWFKKGYKPPVFDEKYETSFDDVDAAFGDSEDRHVKEETEDQPTSMNAFELISLNQALNLDNLFEAKKEYKRETRFTSQCPPKEIITKIEEAAKPLGFDIQKKNYKMRMENLKAGRKGNLNVATEVFQVAPSLHVVELKKAKGDTLEFQKFYRTLSTQLKDVVWKCDGEVEGNGAAA | – | binds
